From publication PMC11395162 come the findings set out here.

Sequences of proteins named here, by UniProt entry; tags and fusion partners are left off.
UniProt Q9UNE7: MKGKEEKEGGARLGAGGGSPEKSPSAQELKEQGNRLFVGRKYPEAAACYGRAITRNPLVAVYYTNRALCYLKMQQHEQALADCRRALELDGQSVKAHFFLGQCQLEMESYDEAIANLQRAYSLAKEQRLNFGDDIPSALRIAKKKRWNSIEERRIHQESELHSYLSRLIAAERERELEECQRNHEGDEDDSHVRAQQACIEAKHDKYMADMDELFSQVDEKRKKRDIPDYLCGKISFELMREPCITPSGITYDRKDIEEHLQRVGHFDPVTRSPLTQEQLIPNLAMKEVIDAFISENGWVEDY

Results are given in words; binding and its absence hold for the method and conditions named. In cells and extracts the contact can be indirect. Some entries that bind do so weakly or less than the wild type. Sequences can lack the tags named with a protein.

This test deals with GST-STUB1 (human) (UniProt Q9UNE7). Briefly: pull-down; GST, GST-STUB1 or GST-UHRF1 from E. coli BL21 on GST magnetic beads, incubated with HEK293T cell lysate at 4 °C for 4 h; immunoblot; only the target purified. (In general: Immunoblotting shows a protein as a band on a membrane.)

B1: UHRF1 in HEK293T cell lysate (prey of the GST pull-down) (protein, UniProt Q96T88 1-793)
chain: MWIQVRTMDGRQTHTVDSLSRLTKVEELRRKIQELFHVEPGLQRLFYRGKQMEDGHTLFDYEVRLNDTIQLLVRQSLVLPHSTKERDSELSDTDSGCCLGQSESDKSSTHGEAAAETDSRPADEDMWDETELGLYKVNEYVDARDTNMGAWFEAQVVRVTRKAPSRDEPCSSTSRPALEEDVIYHVKYDDYPENGVVQMNSRDVRARARTIIKWQDLEVGQVVMLNYNPDNPKERGFWYDAEISRKRETRTARELYANVVLGDDSLNDCRIIFVDEVFKIERPGEGSPMVDNPMRRKSGPSCKHCKDDVNRLCRVCACHLCGGRQDPDKQLMCDECDMAFHIYCLDPPLSSVPSEDEWYCPECRNDASEVVLAGERLRESKKKAKMASATSSSQRDWGKGMACVGRTKECTIVPSNHYGPIPGIPVGTMWRFRVQVSESGVHRPHVAGIHGRSNDGAYSLVLAGGYEDDVDHGNFFTYTGSGGRDLSGNKRTAEQSCDQKLTNTNRALALNCFAPINDQEGAEAKDWRSGKPVRVVRNVKGGKNSKYAPAEGNRYDGIYKVVKYWPEKGKSGFLVWRYLLRRDDDEPGPWTKEGKDRIKKLGLTMQYPEGYLEALANREREKENSKREEEEQQEGGFASPRTGKGKWKRKSAGGGPSRAGSPRRTSKKTKVEPYSLTAQQSSLIREDKSNAKLWNEVLASLKDRPASGSPFQLFLSKVEETFQCICCQELVFRPITTVCQHNVCKDCLDRSFRAQVFSCPACRYDLGRSYAMQVNQPLQTVLNQLFPGYGNGR
Consider B1, for which the binding entry is on record as “binds”.
